Results are given in words; binding and its absence hold for the method and conditions named. For some assays here: Binding seen in cells or lysates may run through a third protein. Some entries that bind do so weakly or less than the wild type. Tags and fused reporters may be left off the sequences shown.
T1: MAP kinase 12 (MPK12), Col-0 version, split-ubiquitin two-hybrid fusion (Arabidopsis thaliana) (UniProt Q8GYQ5)
T1 sequence: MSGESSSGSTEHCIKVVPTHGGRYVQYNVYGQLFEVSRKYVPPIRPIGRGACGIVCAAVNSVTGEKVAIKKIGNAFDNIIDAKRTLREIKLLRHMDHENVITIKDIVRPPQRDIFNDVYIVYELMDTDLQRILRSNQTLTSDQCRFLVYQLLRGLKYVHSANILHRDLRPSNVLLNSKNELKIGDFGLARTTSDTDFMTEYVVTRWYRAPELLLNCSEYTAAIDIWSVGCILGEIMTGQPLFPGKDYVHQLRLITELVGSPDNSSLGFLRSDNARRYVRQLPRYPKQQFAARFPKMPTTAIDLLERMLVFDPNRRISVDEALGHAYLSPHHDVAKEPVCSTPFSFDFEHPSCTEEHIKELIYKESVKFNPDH

Amino acid sequences for entries named in this document (tags omitted). A change or cut given only in a name is not applied to a line headed by its entry.
UniProt O04719, whole entry: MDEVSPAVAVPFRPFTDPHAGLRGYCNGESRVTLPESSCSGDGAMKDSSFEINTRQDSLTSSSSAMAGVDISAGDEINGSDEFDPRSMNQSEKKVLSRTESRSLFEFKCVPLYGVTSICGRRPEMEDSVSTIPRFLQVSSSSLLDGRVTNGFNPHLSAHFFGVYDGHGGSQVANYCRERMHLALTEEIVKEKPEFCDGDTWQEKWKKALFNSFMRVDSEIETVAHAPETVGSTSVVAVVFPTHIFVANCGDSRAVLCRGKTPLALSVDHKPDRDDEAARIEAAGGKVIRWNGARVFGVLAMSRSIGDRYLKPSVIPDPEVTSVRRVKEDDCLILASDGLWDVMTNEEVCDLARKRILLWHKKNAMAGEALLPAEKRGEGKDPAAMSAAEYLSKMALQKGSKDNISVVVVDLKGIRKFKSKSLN
UniProt P49597, whole entry: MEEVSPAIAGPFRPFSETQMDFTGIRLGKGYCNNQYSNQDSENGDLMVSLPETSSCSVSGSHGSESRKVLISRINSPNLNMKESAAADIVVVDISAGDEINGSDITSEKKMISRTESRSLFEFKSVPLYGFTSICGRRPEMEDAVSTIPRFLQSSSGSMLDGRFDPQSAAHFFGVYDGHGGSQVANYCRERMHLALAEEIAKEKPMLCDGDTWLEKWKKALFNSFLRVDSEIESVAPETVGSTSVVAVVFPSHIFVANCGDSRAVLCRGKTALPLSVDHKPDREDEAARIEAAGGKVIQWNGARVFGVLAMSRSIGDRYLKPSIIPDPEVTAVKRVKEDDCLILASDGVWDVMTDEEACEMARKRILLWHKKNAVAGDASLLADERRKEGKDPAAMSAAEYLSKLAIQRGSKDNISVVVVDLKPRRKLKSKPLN

T2: protein kinase HT1 (HIGH LEAF TEMPERATURE 1), split-ubiquitin two-hybrid fusion (Arabidopsis thaliana) (UniProt Q2MHE4)
T2 sequence: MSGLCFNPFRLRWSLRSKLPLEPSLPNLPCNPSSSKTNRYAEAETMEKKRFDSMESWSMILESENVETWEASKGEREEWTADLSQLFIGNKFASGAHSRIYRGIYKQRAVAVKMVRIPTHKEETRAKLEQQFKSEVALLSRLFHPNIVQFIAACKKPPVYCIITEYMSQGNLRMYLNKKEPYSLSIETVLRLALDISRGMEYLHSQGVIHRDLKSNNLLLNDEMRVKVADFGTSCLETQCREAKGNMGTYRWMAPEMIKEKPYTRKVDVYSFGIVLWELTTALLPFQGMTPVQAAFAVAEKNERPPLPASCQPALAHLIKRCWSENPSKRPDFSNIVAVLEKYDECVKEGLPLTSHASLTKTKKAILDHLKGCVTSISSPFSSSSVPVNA

T3: HT1, split-YFP fusion for BiFC (Arabidopsis thaliana) (UniProt Q2MHE4)
T3 sequence: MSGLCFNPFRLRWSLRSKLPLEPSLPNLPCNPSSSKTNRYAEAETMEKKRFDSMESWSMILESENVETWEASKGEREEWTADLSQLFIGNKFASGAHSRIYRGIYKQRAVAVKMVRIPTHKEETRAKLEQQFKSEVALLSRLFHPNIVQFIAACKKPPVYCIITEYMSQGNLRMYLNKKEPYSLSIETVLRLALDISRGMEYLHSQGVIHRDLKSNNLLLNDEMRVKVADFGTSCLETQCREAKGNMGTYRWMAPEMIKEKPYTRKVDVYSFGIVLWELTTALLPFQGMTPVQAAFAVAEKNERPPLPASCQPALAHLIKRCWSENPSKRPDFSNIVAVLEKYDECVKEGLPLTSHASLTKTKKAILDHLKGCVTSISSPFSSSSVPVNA


target: T1, MAP kinase 12 (MPK12), Col-0 version, split-ubiquitin two-hybrid fusion (Arabidopsis thaliana); assay: two-hybrid

| binding | Molecule |
| --- | --- |
| no binding | ABI2, split-ubiquitin two-hybrid prey (from UniProt O04719 1-423) (enzyme) |
| no binding | ABI1, split-ubiquitin two-hybrid prey (from UniProt P49597 1-434) (enzyme) |
| no binding | HAB2, split-ubiquitin two-hybrid prey (enzyme, UniProt Q9LNP9 20-511) DSGISSTFDISELENVTDAADMLCNQKRQRYSNGVVDCIMGSVSEEKTLSEVRSLSSDFSVTVQESEEDEPLVSDATIISEGLIVVDARSEISLPDTVETDNGRVLATAIILNETTIEQVPTAEVLIASLNHDVNMEVATSEVVIRLPEENPNVARGSRSVYELECIPLWGTISICGGRSEMEDAVRALPHFLKIPIKMLMGDHEGMSPSLPYLTSHFFGVYDGHGGAQVADYCHDRIHSALAEEIERIKEELCRRNTGEGRQVQWEKVFVDCYLKVDDEVKGKINRPVVGSSDRMVLEAVSPETVGSTAVVALVCSSHIIVSNCGDSRAVLLRGKDSMPLSVDHKPDREDEYARIEKAGGKVIQWQGARVSGVLAMSRSIGDQYLEPFVIPDPEVTFMPRAREDECLILASDGLWDVMSNQEACDFARRRILAWHKKNGALPLAERGVGEDQACQAAAEYLSKLAIQMGSKDNISIIVIDLKAQRKFKTRS |
| no binding | SnRK2.2, split-ubiquitin two-hybrid prey (enzyme, UniProt Q39192 1-362) MDPATNSPIMPIDLPIMHDSDRYDFVKDIGSGNFGVARLMTDRVTKELVAVKYIERGEKIDENVQREIINHRSLRHPNIVRFKEVILTPSHLAIVMEYAAGGELYERICNAGRFSEDEARFFFQQLISGVSYCHAMQICHRDLKLENTLLDGSPAPRLKICDFGYSKSSVLHSQPKSTVGTPAYIAPEILLRQEYDGKLADVWSCGVTLYVMLVGAYPFEDPQEPRDYRKTIQRILSVTYSIPEDLHLSPECRHLISRIFVADPATRITIPEITSDKWFLKNLPGDLMDENRMGSQFQEPEQPMQSLDTIMQIISEATIPTVRNRCLDDFMADNLDLDDDMDDFDSESEIDVDSSGEIVYAL |
| binds | IBR5 (INDOLE-3-BUTYRIC ACID RESPONSE 5), split-ubiquitin two-hybrid prey (enzyme, UniProt Q84JU4 1-257) MRKRERENPCSICGHYHKYEEGEVCGVCGHCMPVSSDTVAPQQVHVSAFPSEILPEFLYLGSYDNASRSELLKTQGISRVLNTVPMCQNLYRNSFTYHGLDNEKVLQFDDAIKFLDQCEKDKARVLVHCMSGKSRSPAVVVAYLMKRKGWRLAESHQWVKQRRPSTDISPEFYQQLQEFEQGIFGSEMMSAMNINDAPTFGFGFPKIDNQAQAPVFNNAPTSSIFSSPASSIPPQEFTFGATPPKPTTGGDIAMDGS |
| no binding | MKP2 (MAPK PHOSPHATASE 2), split-ubiquitin two-hybrid prey (enzyme, UniProt Q9M8K7 1-167) MEKVVDLFGVGEANSQKLLEGGKDLSEIQQGLFIGSVAEANNKDFLKSSNITHVLTVAVALAPPYPDDFVYKVIEVVDRSETDLTVYFDECYSFIDQAIQSGGGVLVHCFMGMSRSVTIVVAYLMKKHGMGFSKAMELVRSRRHQAYPNPGFISQLQQFEKSIQGNA |
| no binding | BLUS1, split-ubiquitin two-hybrid prey (enzyme, UniProt O23304 1-487) MARNKLEFPLDAEAYEIICKIGVGVSASVYKAICIPMNSMVVAIKAIDLDQSRADFDSLRRETKTMSLLSHPNILNAYCSFTVDRCLWVVMPFMSCGSLHSIVSSSFPSGLPENCISVFLKETLNAISYLHDQGHLHRDIKAGNILVDSDGSVKLADFGVSASIYEPVTSSSGTTSSSLRLTDIAGTPYWMAPEVVHSHTGYGFKADIWSFGITALELAHGRPPLSHLPPLKSLLMKITKRFHFSDYEINTSGSSKKGNKKFSKAFREMVGLCLEQDPTKRPSAEKLLKHPFFKNCKGLDFVVKNVLHSLSNAEQMFMESQILIKSVGDDDEEEEEEDEEIVKNRRISGWNFREDDLQLSPVFPATESDSSESSPREEDQSKDKKEDDNVTITGYELGLGLSNEEAKNQEGEVVGFDKDLVLEKLKVLKKSLEHQRARVSIIIEALSGDKEEKSREEELLEMVEKLKIELETEKLKTLRADKDSVLG |
| no binding | SnRK3.11, split-ubiquitin two-hybrid prey (enzyme, UniProt Q9LDI3 1-446) MTKKMRRVGKYEVGRTIGEGTFAKVKFARNTDTGDNVAIKIMAKSTILKNRMVDQIKREISIMKIVRHPNIVRLYEVLASPSKIYIVLEFVTGGELFDRIVHKGRLEESESRKYFQQLVDAVAHCHCKGVYHRDLKPENLLLDTNGNLKVSDFGLSALPQEGVELLRTTCGTPNYVAPEVLSGQGYDGSAADIWSCGVILFVILAGYLPFSETDLPGLYRKINAAEFSCPPWFSAEVKFLIHRILDPNPKTRIQIQGIKKDPWFRLNYVPIRAREEEEVNLDDIRAVFDGIEGSYVAENVERNDEGPLMMNAFEMITLSQGLNLSALFDRRQDFVKRQTRFVSRREPSEIIANIEAVANSMGFKSHTRNFKTRLEGLSSIKAGQLAVVIEIYEVAPSLFMVDVRKAAGETLEYHKFYKKLCSKLENIIWRATEGIPKSEILRTITF |

target: T2, protein kinase HT1 (HIGH LEAF TEMPERATURE 1), split-ubiquitin two-hybrid fusion (Arabidopsis thaliana); assay: two-hybrid

| binding | Molecule |
| --- | --- |
| binds | MAP kinase 12 (MPK12), Col-0 version, split-ubiquitin two-hybrid fusion (enzyme, UniProt Q8GYQ5 1-372) MSGESSSGSTEHCIKVVPTHGGRYVQYNVYGQLFEVSRKYVPPIRPIGRGACGIVCAAVNSVTGEKVAIKKIGNAFDNIIDAKRTLREIKLLRHMDHENVITIKDIVRPPQRDIFNDVYIVYELMDTDLQRILRSNQTLTSDQCRFLVYQLLRGLKYVHSANILHRDLRPSNVLLNSKNELKIGDFGLARTTSDTDFMTEYVVTRWYRAPELLLNCSEYTAAIDIWSVGCILGEIMTGQPLFPGKDYVHQLRLITELVGSPDNSSLGFLRSDNARRYVRQLPRYPKQQFAARFPKMPTTAIDLLERMLVFDPNRRISVDEALGHAYLSPHHDVAKEPVCSTPFSFDFEHPSCTEEHIKELIYKESVKFNPDH |

target: T3, HT1, split-YFP fusion for BiFC (Arabidopsis thaliana); assay: split reporter

| binding | Molecule |
| --- | --- |
| no binding | MPK11, split-YFP fusion for BiFC (enzyme, UniProt Q9LMM5 1-369) MSIEKPFFGDDSNRGVSINGGRYVQYNVYGNLFEVSKKYVPPLRPIGRGASGIVCAAWNSETGEEVAIKKIGNAFGNIIDAKRTLREIKLLKHMDHDNVIAIIDIIRPPQPDNFNDVHIVYELMDTDLHHIIRSNQPLTDDHSRFFLYQLLRGLKYVHSANVLHRDLKPSNLLLNANCDLKIGDFGLARTKSETDFMTEYVVTRWYRAPELLLNCSEYTAAIDIWSVGCILGEIMTREPLFPGRDYVQQLRLITELIGSPDDSSLGFLRSDNARRYVRQLPQYPRQNFAARFPNMSVNAVDLLQKMLVFDPNRRITVDEALCHPYLAPLHEYNEEPVCVRPFHFDFEQPSLTEENIKELIYRESVKFNP |
| binds | MPK12 (Col-0 version), split-YFP fusion for BiFC (enzyme, UniProt Q8GYQ5 1-372) MSGESSSGSTEHCIKVVPTHGGRYVQYNVYGQLFEVSRKYVPPIRPIGRGACGIVCAAVNSVTGEKVAIKKIGNAFDNIIDAKRTLREIKLLRHMDHENVITIKDIVRPPQRDIFNDVYIVYELMDTDLQRILRSNQTLTSDQCRFLVYQLLRGLKYVHSANILHRDLRPSNVLLNSKNELKIGDFGLARTTSDTDFMTEYVVTRWYRAPELLLNCSEYTAAIDIWSVGCILGEIMTGQPLFPGKDYVHQLRLITELVGSPDNSSLGFLRSDNARRYVRQLPRYPKQQFAARFPKMPTTAIDLLERMLVFDPNRRISVDEALGHAYLSPHHDVAKEPVCSTPFSFDFEHPSCTEEHIKELIYKESVKFNPDH |
| binds | Cvi-0 MPK12 (G53R), split-YFP fusion for BiFC (enzyme, UniProt Q8GYQ5 1-372) MSGESSSGSTEHCIKVVPTHGGRYVQYNVYGQLFEVSRKYVPPIRPIGRGACRIVCAAVNSVTGEKVAIKKIGNAFDNIIDAKRTLREIKLLRHMDHENVITIKDIVRPPQRDIFNDVYIVYELMDTDLQRILRSNQTLTSDQCRFLVYQLLRGLKYVHSANILHRDLRPSNVLLNSKNELKIGDFGLARTTSDTDFMTEYVVTRWYRAPELLLNCSEYTAAIDIWSVGCILGEIMTGQPLFPGKDYVHQLRLITELVGSPDNSSLGFLRSDNARRYVRQLPRYPKQQFAARFPKMPTTAIDLLERMLVFDPNRRISVDEALGHAYLSPHHDVAKEPVCSTPFSFDFEHPSCTEEHIKELIYKESVKFNPDH |

target: T2, protein kinase HT1 (HIGH LEAF TEMPERATURE 1), split-ubiquitin two-hybrid fusion (Arabidopsis thaliana); assay: two-hybrid; remark: another data set of the same source

| binding | Molecule |
| --- | --- |
| binds | MAP kinase 12 (MPK12), Col-0 version, split-ubiquitin two-hybrid fusion (enzyme, UniProt Q8GYQ5 1-372) MSGESSSGSTEHCIKVVPTHGGRYVQYNVYGQLFEVSRKYVPPIRPIGRGACGIVCAAVNSVTGEKVAIKKIGNAFDNIIDAKRTLREIKLLRHMDHENVITIKDIVRPPQRDIFNDVYIVYELMDTDLQRILRSNQTLTSDQCRFLVYQLLRGLKYVHSANILHRDLRPSNVLLNSKNELKIGDFGLARTTSDTDFMTEYVVTRWYRAPELLLNCSEYTAAIDIWSVGCILGEIMTGQPLFPGKDYVHQLRLITELVGSPDNSSLGFLRSDNARRYVRQLPRYPKQQFAARFPKMPTTAIDLLERMLVFDPNRRISVDEALGHAYLSPHHDVAKEPVCSTPFSFDFEHPSCTEEHIKELIYKESVKFNPDH |
| binds | Cvi-0 MPK12 (G53R), split-ubiquitin two-hybrid fusion (enzyme, UniProt Q8GYQ5 1-372) MSGESSSGSTEHCIKVVPTHGGRYVQYNVYGQLFEVSRKYVPPIRPIGRGACRIVCAAVNSVTGEKVAIKKIGNAFDNIIDAKRTLREIKLLRHMDHENVITIKDIVRPPQRDIFNDVYIVYELMDTDLQRILRSNQTLTSDQCRFLVYQLLRGLKYVHSANILHRDLRPSNVLLNSKNELKIGDFGLARTTSDTDFMTEYVVTRWYRAPELLLNCSEYTAAIDIWSVGCILGEIMTGQPLFPGKDYVHQLRLITELVGSPDNSSLGFLRSDNARRYVRQLPRYPKQQFAARFPKMPTTAIDLLERMLVFDPNRRISVDEALGHAYLSPHHDVAKEPVCSTPFSFDFEHPSCTEEHIKELIYKESVKFNPDH |
